Article PMC12370252
Results are given in words; binding and its absence hold for the method and conditions named. In cells and extracts the contact can be indirect. Some binding calls cover weakened binding; strength is not graded here.

Sequences of proteins named here, by UniProt entry; tags and fusion partners are left off. A change or cut given only in a name is not applied to a line headed by its entry. Residues count along the entry.
UniProt Q9UBI1, residues 1-124: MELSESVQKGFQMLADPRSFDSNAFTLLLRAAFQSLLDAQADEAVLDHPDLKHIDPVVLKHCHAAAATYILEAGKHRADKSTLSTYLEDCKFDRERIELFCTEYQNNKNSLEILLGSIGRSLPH
UniProt P84077: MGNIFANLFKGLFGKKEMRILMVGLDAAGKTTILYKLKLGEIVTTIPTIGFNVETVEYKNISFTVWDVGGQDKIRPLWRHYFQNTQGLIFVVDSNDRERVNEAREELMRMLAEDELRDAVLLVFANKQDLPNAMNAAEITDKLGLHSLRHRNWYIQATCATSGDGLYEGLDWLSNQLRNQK

Molecular target: 3xFLAG-tagged COMMD3-NTD co-expressed in 293T cells for co-IP (human) (UniProt Q9UBI1)
Test: co-IP; HA-tagged ARF1 Q71L and 3xFLAG-tagged COMMD3-NTD co-expressed in 293T cells; COMMD3-NTD immunoprecipitated with anti-FLAG antibodies, detection by immunoblotting; IP buffer 25 mM HEPES pH 7.4, 138 mM NaCl, 0.5% CHAPS

binding: binds
Substance: HA-tagged human ARF1 Q71L (from UniProt P84077 1-181)
